Reference: PubChem BioAssay AID493014 (National Center for Advancing Translational Sciences (NCATS), 2011)
Out of some 340,000 compounds screened, about 170 (0.05%) were called active. The shares of active, inactive and inconclusive entries below differ from those in the screen. Calls follow the shape of the dose curve; as a rule, active = well fitted inhibition curve with a large enough effect in the signal ratio, with a control signal flat (not every such curve was filed as active); inconclusive = small, poorly fitted or top-dose-only effect, or effect the other way, or a change in a side signal; inactive = flat fitted curve, though single readings scatter; the % refers to the signal ratio. Potencies beside an inconclusive call are fits to weak or partial responses and may not hold up.

experiment: qHTS Assay to Find Inhibitors of Chronic Active B-Cell Receptor Signaling; details: ABC-DLBCL IkBa-CBG/CBR reporter, luminescence ratio (green luciferase fused to IkBa over red control in TMD8 lymphoma cells), 4 h; activity change, negative = inhibition: at 46.1 µM (top of the series);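 as to activity change, negative = inhibition: plate controls were basal doxycycline-induced cells for no effect and cells given 10 µM MG132 for full effect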
In short: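 Compounds up to 46 uM were incubated four hours with TMD8 cells whose green CBG68 luciferase is fused to IkappaBalpha; red CBR luminescence normalised the signal, and concentration-effect curves were fitted to fusion, red and ratio data.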
Potency is read from the fitted curve at half-maximal effect.

SMILES | Potency | activity change, negative = inhibition
CCN1CC(CN(C)Cc2nc(-c3cccs3)no2)CC1=O (stereo not given) | inconclusive: 35.5 µM [rising, partial curve, poor fit] | –
CCOC(=O)c1cnn(-c2ccc(Cl)cc2)c1C1CCN(C(=O)OC(C)(C)C)CC1 | – | inconclusive: 8.36%
CCn1c(O)c(C=Nc2ccccc2)sc1=O | – | inactive
Cc1cc2c(s1)c1c(C)nn(Cc3ccc(F)cc3)c(=O)c1n2C | – | inactive
O=c1oc2ccccc2cc1-c1csc(Nc2ccc(O)cc2)n1 | inconclusive: 3.98 µM [falling, partial curve, poor fit] | –
O=C(Cn1ncc2c1-c1ccccc1OC2)N1CCN(Cc2ccc3c(c2)OCO3)CC1 | – | inconclusive: -1.54%
Cc1cc(C)nc(NS(=O)(=O)c2ccc(NC(=O)CCC3COc4ccccc4O3)cc2)n1 (stereo not given) | – | inconclusive: 29.5%
c1ccc(N2CCN(c3nc(NCc4ccco4)c4ccccc4n3)CC2)cc1 | – | inconclusive: 2.24%
COc1ccc2c(c1)c(CC(=O)Nc1ccc(C(C)=O)cc1)c(C)n2C(=O)c1ccc(Cl)cc1 | inconclusive: 23.1 µM [falling, single point] | –
CCOc1cccc(CN2CCC(n3nccc3NC(=O)C3CC3)CC2)c1O | – | inactive
CCOC(=O)c1cnc2c(OC)cccc2c1N1CCN(c2ccc(OC)cc2)CC1 | inconclusive: 20.6 µM [falling, partial curve, poor fit] | –
Cc1ccc(C2=Nc3cccnc3C(c3ccccc3)=NN2)cc1 | – | inactive
Cc1ccc(NC(=O)/C=C/c2cccc([N+](=O)[O-])c2)nc1 | – | inconclusive: 8.74%
CCOC(=O)C1=C(c2ccccc2)OC(N)=C(C#N)C1C1CCCCC1 (stereo not given) | inconclusive: 16.4 µM [falling, partial curve, poor fit] | –
Cc1nc2ncnn2c(N2CCN(S(=O)(=O)c3ccc(Br)cc3)CC2)c1C | – | inconclusive: -0.976%
Cc1ccc(NC(=O)NC(=O)CN2CCN(c3ccc(O)cc3)CC2)c(C)c1 | – | inconclusive: -0.367%
COc1ccc(/C=N\NC(=O)c2cccc([N+](=O)[O-])c2)cc1Cn1cc([N+](=O)[O-])cn1 | – | inconclusive: -21.8%
CC(=O)Nc1ccc(N2C(C(C)=O)=NN(c3ccc(Cl)cc3)C2c2sccc2C)cc1 (stereo not given) | – | inconclusive: -16.8%
Cc1cc(C)nc(S/C=C/C(=O)c2ccccc2F)n1 | inconclusive: 10 µM [falling, partial curve] | –
CC1CCCC(C)N1CCNC(=O)Nc1ccc(Cl)cc1 (stereo not given) | inconclusive: 1.84 µM [rising, full curve, poor fit] | –

3 compounds already listed, sorted by heavy-atom count, low to high.
SMILES | Potency | activity change, negative = inhibition
Cc1ccc(NC(=O)/C=C/c2cccc([N+](=O)[O-])c2)nc1 | – | inconclusive: 8.74%
CCN1CC(CN(C)Cc2nc(-c3cccs3)no2)CC1=O (stereo not given) | inconclusive: 35.5 µM [rising, partial curve, poor fit] | –
CC(=O)Nc1ccc(N2C(C(C)=O)=NN(c3ccc(Cl)cc3)C2c2sccc2C)cc1 (stereo not given) | – | inconclusive: -16.8%
